# Some of the results follow. Further columns of the screen follow, without active or inactive calls. The list favours compounds with an active or inconclusive main result. Words in brackets tell the shape of the fitted curve; partial curves, single points and poor fits give uncertain potencies.
# Test: qHTS Assay to Find Inhibitors of Chronic Active B-Cell Receptor Signaling
# Settings: ABC-DLBCL IkBa-CBG/CBR reporter, luminescence ratio (green luciferase fused to IkBa over red control in TMD8 lymphoma cells), 4 h
# Outline: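 Cell line TMD8 (human ABC DLBCL), stably expressing tet-inducible CBG68-IkBa fusion and CBR; IMDM/0.5% FBS; cpd up to 46 uM; dox induction, 4 h, 37C/5% CO2; dual luminescence; green/red ratio; MG132 control.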
# [1] = measured here: IkBa-CBG green luminescence
# [2] = measured here: CBR red luminescence, cell number
SMILES,AC50 [1],AC50 [2]
COc1ccc(/C=N/NC(=O)c2ccc(CSc3nc(C)cc(C)n3)cc2)cc1O,"20.6 µM [falling, single point]",–
COC(=O)c1ccccc1NC(=O)Cc1nc(-c2ccccc2)sc1-c1ccc(C)cc1,–,"0.00651 µM [rising, full curve, poor fit]"
COC(=O)c1ccc(CSc2cc(C)c3ccccc3n2)o1,–,"35.5 µM [falling, single point]"
S=c1[nH]nc(C2CCCCC2)n1/N=C/C(Cl)=C\c1ccccc1,–,"6.51 µM [falling, partial curve]"
O=C(/C=C\c1ccccc1)Oc1cccc2cccnc12,"15.8 µM [falling, partial curve]","35.5 µM [falling, single point]"
c1ccc(CCN2CN=C(Nc3nc4ccccc4o3)NC2)cc1,–,"29.1 µM [rising, partial curve, poor fit]"
COc1ccc(-n2nnc3c(SCC(=O)NCc4ccco4)ncnc32)cc1,–,"12.6 µM [falling, partial curve]"
CCOC(=O)c1ccc(NC(=O)CSc2nnc(CNc3ccc(C)cc3)n2C)cc1,–,"18.4 µM [falling, partial curve, poor fit]"
COC(=O)CSc1nnc(C)c(=O)[nH]1,–,"0.731 µM [falling, partial curve, poor fit]"
CCOCCCNC(=O)C1CCN(Cc2cccc(OCc3ccccc3)c2)CC1,–,"8.91 µM [rising, partial curve, poor fit]"
Cc1cccc(N2CCN(C(=O)c3ccc(CS(=O)Cc4ccc(Cl)cc4)o3)CC2)c1C (configuration not stated),–,"35.5 µM [falling, single point]"
Cc1cc(C)cc(OC(C)C(=O)Nc2ccc3c(c2)n(C)c(=O)n3C)c1 (configuration not stated),–,"35.5 µM [rising, partial curve, poor fit]"
COc1ccccc1Nc1nnc(SCC2CCCCO2)s1 (configuration not stated),"10 µM [falling, partial curve, poor fit]","4.47 µM [falling, full curve, poor fit]"
CCn1cc(C(=O)Nc2ccccc2C(=O)OC)c(=O)c2ccc(C)nc21,–,"11.2 µM [falling, single point]"
CCN(C(=O)/C=C/c1ccccc1)C1CCCCC1,–,"1.26 µM [rising, partial curve, poor fit]"
COc1cc(C2c3sc(=O)[nH]c3SC3C(=O)N(c4ccc(C)cc4)C(=O)C32)ccc1O (configuration not stated),–,"22.4 µM [falling, single point]"
CC1(C)CCCN(C(=O)c2coc(=O)c(Br)c2)C1,–,"0.447 µM [rising, partial curve, poor fit]"
CSc1ccccc1OCc1cc(C(=O)N(C)Cc2cc(C)[nH]n2)no1,–,"2.82 µM [falling, full curve]"
O=C(O)c1cc([N+](=O)[O-])c(NCCC2=CCCCC2)c([N+](=O)[O-])c1,"4.47 µM [rising, full curve, poor fit]",–
C=CCn1c(SCC(=O)c2cccs2)nc2sc(C)c(C)c2c1=O,–,"16.4 µM [rising, single point]"
Cc1cccc(NC(=O)CCOc2ccccc2)c1C,–,"10 µM [falling, partial curve]"

# Complete entries as entered above. Order of values: AC50 [1]	AC50 [2]
# `CCN(C(=O)/C=C/c1ccccc1)C1CCCCC1` is listed as –	1.26 µM [rising, partial curve, poor fit]
# `COC(=O)CSc1nnc(C)c(=O)[nH]1` is listed as –	0.731 µM [falling, partial curve, poor fit]
# `C=CCn1c(SCC(=O)c2cccs2)nc2sc(C)c(C)c2c1=O` is listed as –	16.4 µM [rising, single point]
# `Cc1cccc(N2CCN(C(=O)c3ccc(CS(=O)Cc4ccc(Cl)cc4)o3)CC2)c1C` (configuration not stated) is listed as –	35.5 µM [falling, single point]

# Next entries follow.

SMILES,AC50 [1],AC50 [2]
CCCC(=O)Nc1ccc(C(=O)N/N=C/c2ccc[nH]2)cc1,–,"23.1 µM [rising, single point]"
CC(=O)NC(C)C(=O)OCC(=O)c1ccc(-c2ccccc2)cc1 (configuration not stated),–,"35.5 µM [rising, single point]"
O=C(Nc1ccccc1C(=O)NC(Cc1c[nH]c2ccccc12)C(=O)O)c1ccccc1 (configuration not stated),–,"31.6 µM [falling, partial curve, poor fit]"
CSCCC1NC2(C(=O)Nc3c2ccc(Cl)c3C)[C@@H]2C(=O)N(C3CCCC3)C(=O)[C@H]12 (some centres not stated),–,"29.1 µM [rising, single point]"
O=C(Nc1ccccc1C(=O)N1CCCC1)c1ncoc1-c1cccc(Cl)c1,–,"14.1 µM [falling, partial curve, poor fit]"
N=c1c(S(=O)(=O)c2ccccc2)cc2c(=O)n3ccccc3nc2n1Cc1ccco1,–,"1.58 µM [falling, partial curve]"
C/C(=N\NC(=O)c1cccc(F)c1)c1ccc(NC(=O)Cc2ccccc2)cc1,–,"35.5 µM [falling, single point]"
CCOC(=O)c1sc(NC(=O)CN2CCN(c3ccc(OC)cc3)CC2)nc1C,–,"22.4 µM [falling, single point]"
COc1ccc(C(=O)COc2ccccc2C#N)cc1,–,"0.447 µM [rising, full curve, poor fit]"
CC1CCN(CCCNC(=O)c2cc(Sc3ccc(F)cc3)nc3ccccc23)CC1,–,"15.8 µM [falling, single point]"
CC(=O)c1cc(CN2CCC(C(=O)Nc3cccc(-c4cscn4)c3)CC2)cs1,–,"6.31 µM [falling, single point]"
COc1cccc(C2c3[nH]c4ccccc4c3CCN2Cc2cnc(C)s2)c1OC (configuration not stated),–,"5.62 µM [rising, single point]"
O=C(CCC(=O)NNc1nc2ccccc2c2nc(-c3ccccc3)nn12)NCCCN1CCCC1=O,–,"31.6 µM [falling, single point]"
O=[N+]([O-])c1ccc(/C=N/Nc2ccnc3cc(Cl)ccc23)o1,–,"0.562 µM [rising, partial curve, poor fit]"
Cn1nc(C(=O)OCC(=O)N2CCc3ccccc32)c2ccccc2c1=O,–,"5.8 µM [falling, single point]"
COc1ccc(N2CCN(CCCNC(=O)C(=O)c3c[nH]c4ccccc34)CC2)cc1,–,"17.8 µM [falling, partial curve, poor fit]"
Cc1ccc(NC(=O)CSc2n[nH]c(-c3ccco3)n2)cc1,–,"35.5 µM [falling, single point]"
Cc1ccc(-c2nc3ccc(Cl)cc3n2OC(C)C(=O)O)cc1 (configuration not stated),–,"3.98 µM [rising, single point]"
COc1ccccc1NCc1nnc(-c2ccccc2)o1,–,"14.1 µM [falling, single point]"
CCOC(=O)C(CC)Sc1nnc2c3cc(C)ccc3n(C)c2n1 (configuration not stated),–,"22.4 µM [falling, single point]"
COc1ccc(OCC(O)CNCCOc2ccccc2OC)c(C(C)(C)C)c1 (configuration not stated),–,"14.1 µM [falling, single point]"

SMILES,AC50 [1],AC50 [2]
CCN(CC)S(=O)(=O)c1ccc(C(=O)Nc2ccc3c(c2)OCCO3)cc1,–,"5.62 µM [falling, full curve, poor fit]"
C=CCn1c(=O)c2c(C)c(C)sc2n2c(Nc3ccccc3)nnc12,–,"2.82 µM [falling, full curve]"
O=C(NC1CCCCC1)c1cc(-c2cccc(Cl)c2)on1,–,"5.01 µM [falling, partial curve, poor fit]"
O=C(O)COc1ccccc1-c1nc(-c2ccccc2)c(-c2ccccc2)[nH]1,–,"11.2 µM [falling, single point]"
COc1ccc2c(c1)c(CC(=O)O)c(C)n2C(=O)c1ccc(Cl)cc1,–,"7.08 µM [falling, partial curve]"
COc1ccc(C(=O)/C(C#N)=N/Nc2ccccc2[N+](=O)[O-])cc1,–,"11.6 µM [rising, partial curve]"
COCC1CCCN(C(=O)c2ccc3oc(CCCc4ccccc4)nc3c2)C1 (configuration not stated),–,"20 µM [falling, single point]"
CCCc1nc([N+](=O)[O-])c(S(=O)(=O)c2ccccc2)n1CC(C)C,"8.2 µM [falling, partial curve]","10.3 µM [falling, partial curve]"
CCn1c(SCC(=O)Nc2nc3ccc(C)cc3s2)nc2c(c1=O)SC(C)C2 (configuration not stated),–,"1.26 µM [falling, full curve, poor fit]"
CC(=O)c1ccc(NC(=O)CSCCO)cc1,–,"3.26 µM [rising, partial curve, poor fit]"
CC1CCCC(NC(=O)COC(=O)Cc2ccc(Cl)cc2)C1C (configuration not stated),–,"0.82 µM [rising, full curve, poor fit]"
COc1ccc(C(=O)NNC(=O)c2ccccc2[N+](=O)[O-])cc1Br,–,"14.6 µM [falling, partial curve, poor fit]"
COc1ccc(N(C)S(=O)(=O)c2cccc(C(=O)NCC3CCCO3)c2)cc1 (configuration not stated),–,"2.59 µM [falling, full curve, poor fit]"
CSc1ccccc1NC(=O)C1=CC(c2ccc(C)cc2)=NS(=O)(=O)N1C,–,"3.16 µM [falling, partial curve, poor fit]"
Oc1ccccc1C(=S)N1CCCCCC1,–,"0.731 µM [falling, partial curve, poor fit]"
COc1cccc(C(=O)/C=C/Nc2cc(C)ccc2O)c1,–,"29.1 µM [falling, single point]"
Cn1cc(C(=O)N/N=C/C(Br)=C\c2ccccc2)ccc1=O,–,"3.16 µM [rising, single point]"
Cc1ccc2c(C(=O)CN3CCC4(CC3)OCCO4)c(C)[nH]c2c1,"35.5 µM [rising, partial curve, poor fit]","35.5 µM [falling, single point]"
COc1ccc(-c2cn3c4c(sc3n2)CCCC4)cc1,–,"0.231 µM [rising, full curve, poor fit]"
CCOC(=O)C(CC)n1nc(C)n2c(cc3occc32)c1=O (configuration not stated),–,"32.6 µM [falling, single point]"
O=c1[nH]c(CSc2ccccc2)nc2c1oc1ccccc12,–,"3.98 µM [falling, partial curve]"
